Measured values reported in US11666589B2, “Pivarubicin and benzarubicin compositions” (Paradox Pharmaceuticals, Inc., priority 2020, dated 2023).
pIC50: −log10 of the molar value.

Tested on: MDA-MB-231 cells
Assay: MTT cytotoxicity, TNBC monolayer MDA-MB-231
Assay type: cell-based
Settings: Homo sapiens, MDA-MB-231, 48 h
Method: Rottlerin treatment of cells, cell viability analysis by MTT [28] and immunoblot identification of protein expression were performed and described previously.
Based upon the ability of pivarubicin to circumvent multiple mechanisms of resistance against doxorubicin, we then examined the efficacy of pivarubicin against TNBC in comparison to doxorubicin, using the following procedure, using two basal TNBC cell lines. MDA-MB-231 cells and SUM-159 cells were maintained under adherent monolayer growth conditions. Upon reaching 50% confluency, cells were treated for 48 h with the dose range of doxorubicin or pivarubicin as indicated in FIGS. 6A and 6B.
In the absence of specific receptor targets, the current treatment of metastatic TNBC relies on doxorubicin-based multidrug therapy, with only limited effectiveness. […] Once achieving a primary tumor volume of 150-190 mm^3, mice were randomized into three cohorts for treatment with the MTD of pivarubicin or doxorubicin, or the equivalent volume per body weight of vehicle.

With COc1cccc2c1C(=O)c1c(O)c3c(c(O)c1C2=O)C[C@@](O)(C(=O)CO)C[C@@H]3O[C@H]1C[C@H](N)[C@H](O)[C@H](C)O1 [Doxorubicin, reference compound] the pIC50 was 6.00.
